Test results as given in PMC10246235.
Results are given in words; binding and its absence hold for the method and conditions named. In cells and extracts the contact can be indirect. A yes stands for co-enrichment or nearness to the bait. Other partners may have been found. Where a sequence is shown, tags or fusion partners need not be part of it.

How the values were obtained:
[1] = molecular target: T1, MeeF-FLAG (Bacillus subtilis) (UniProt O34447); assay: affinity purification with mass spectrometry; C-terminally FLAG-tagged bait captured on anti-FLAG M2 magnetic beads from B. subtilis lysate (overnight LB culture with 50 uM Mn; lysozyme, sonication, DNase, 1% Triton X-100), 30 °C 3 h, three PBS washes; eluted by heating at 95 °C for 10 min; LC-MS/MS, at least 2 peptides
T1 sequence: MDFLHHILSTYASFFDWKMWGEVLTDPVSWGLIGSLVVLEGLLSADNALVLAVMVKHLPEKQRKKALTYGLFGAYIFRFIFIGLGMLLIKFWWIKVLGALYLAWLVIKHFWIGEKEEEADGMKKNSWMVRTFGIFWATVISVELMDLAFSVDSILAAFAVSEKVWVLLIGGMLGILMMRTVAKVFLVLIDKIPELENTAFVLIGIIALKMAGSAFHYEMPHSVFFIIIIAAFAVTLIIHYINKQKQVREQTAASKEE

[2] = molecular target: T2, MeeY-FLAG (Bacillus subtilis) (UniProt O34997); assay: as above
T2 sequence: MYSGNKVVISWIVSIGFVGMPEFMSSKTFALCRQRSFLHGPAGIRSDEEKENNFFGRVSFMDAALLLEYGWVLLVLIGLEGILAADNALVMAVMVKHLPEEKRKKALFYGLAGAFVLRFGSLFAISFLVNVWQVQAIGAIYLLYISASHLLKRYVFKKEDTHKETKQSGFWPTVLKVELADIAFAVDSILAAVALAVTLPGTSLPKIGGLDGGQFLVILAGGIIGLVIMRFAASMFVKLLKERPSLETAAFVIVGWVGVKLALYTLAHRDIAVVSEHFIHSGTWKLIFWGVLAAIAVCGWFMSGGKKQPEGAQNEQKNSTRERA

[3] = molecular target: T2, MeeY-FLAG (Bacillus subtilis); assay: affinity purification with mass spectrometry; C-terminally FLAG-tagged bait captured on anti-FLAG M2 magnetic beads from B. subtilis lysate (overnight LB culture with 50 uM Mn; lysozyme, sonication, DNase, 1% Triton X-100), 30 °C 3 h, three PBS washes; eluted with glycine (pH 3) for 30 min at room temperature; LC-MS/MS, at least 2 peptides

Measured: binding

B1: PrsA (protein, UniProt P24327 20-292)
chain: CSSGDKEVIAKTDAGDVTKGELYTNMKKTAGASVLTQLVQEKVLDKKYKVSDKEIDNKLKEYKTQLGDQYTALEKQYGKDYLKEQVKYELLTQKAAKDNIKVTDADIKEYWEGLKGKIRASHILVADKKTAEEVEKKLKKGEKFEDLAKEYSTDSSASKGGDLGWFAKEGQMDETFSKAAFKLKTGEVSDPVKTQYGYHIIKKTEERGKYDDMKKELKSEVLEQKLNDNAAVQEAVQKVMKKADIEVKDKDLKDTFNTSSTSNSTSSSSSNSK
binds: all assays above
